{"source": "patent US12187726B1", "about": "“Imidazo[1,5-a]pyrido[4,3-e]pyrazines as CK2 inhibitors” (KING FAISAL UNIVERSITY, priority 2024, dated 2025)", "type_in_all_cases": "cell-based", "key": {"[1]": {"tested_on": "MIAPaCa-2 (pancreas) cancer cells", "assay": "MTT in vitro cytotoxic activity assay, MIAPaCa-2", "details": "Homo sapiens, MIA PaCa-2; cells exposed for 96 hours; 50% inhibition of cell proliferation; read-out: Cytotoxicity activity IC50, MIAPaCa-2 (pancreas)", "protocol": "(§1) Compounds 1-16 were screened for their in vitro cytotoxic activity utilizing a 3-(4,5-dimethyl-thiazol-2-yl)-2,5-diphenyltetrazolium bromide (MTT) assay against selected cancer human cell lines consisting of PC3 (prostate), HCT116 (colon), A375 (melanoma), H1299 (lung), MIAPaCa-2 (pancreas), HL60 (leukemia), MCF7 (breast), MDA-MB-231 (breast) (T. Mosmann, J. Immunol. Meth., 1983, 65, 55-63). The cells were cultured at 37° C. in RMPI1640 medium supplemented with 10% fetal bovine serum, 50 IU/mL penicillin, and 50 μg/mL streptomycin in a 5% CO2 incubator. All cells were sub-cultured 3 times/week by trypsinisation. Viable cells were seeded and allowed to adhere for 12 hours before a test drug was added in 96-well plates at an initial density of 1.0×10^5 cells/mL. Tumor cell lines were separately exposed to various concentrations of the tested compounds followed by incubation at a temperature of 37° C. during 96 hours inside a medium of fresh RMPI 1640. Cells were subsequently incubated at 37° C. using MTT at 0.5 mg/mL during 4 hours. After removal of supernatant, formazan crystals were dissolved in isopropanol and the optical density was measured at 570 nm. CX-4945 was used as a positive control."}, "[2]": {"tested_on": "MDA-MB-231 (breast) cancer cells", "assay": "MTT in vitro cytotoxic activity assay, MDA-MB-231", "details": "Homo sapiens, cells exposed for 96 hours, 50% inhibition of cell proliferation, read-out: Cytotoxicity activity IC50, MDA-MB-231 (breast)", "protocol": "as §1"}, "[3]": {"tested_on": "A375 (melanoma) cancer cells", "assay": "MTT in vitro cytotoxic activity assay, A375", "details": "Homo sapiens, A-375; cells exposed for 96 hours; 50% inhibition of cell proliferation; read-out: Cytotoxicity activity IC50, A375 (melanoma)", "protocol": "as §1"}, "[4]": {"tested_on": "MCF7 (breast) cancer cells", "assay": "MTT in vitro cytotoxic activity assay, MCF7", "details": "Homo sapiens, cells exposed for 96 hours, 50% inhibition of cell proliferation, read-out: Cytotoxicity activity IC50, MCF7 (breast)", "protocol": "as §1"}, "[5]": {"tested_on": "HL60 (leukemia) cancer cells", "assay": "MTT in vitro cytotoxic activity assay, HL60", "details": "Homo sapiens, HL-60; cells exposed for 96 hours; 50% inhibition of cell proliferation; read-out: Cytotoxicity activity IC50, HL60 (leukemia)", "protocol": "as §1"}, "[6]": {"tested_on": "HCT116 (colon) cancer cells", "assay": "MTT in vitro cytotoxic activity assay, HCT116", "details": "Homo sapiens, HCT-116; cells exposed for 96 hours; 50% inhibition of cell proliferation; read-out: Cytotoxicity activity IC50, HCT116 (colon)", "protocol": "as §1"}, "[7]": {"tested_on": "PC3 (prostate) cancer cells", "assay": "MTT in vitro cytotoxic activity assay, PC3", "details": "Homo sapiens; cells exposed for 96 hours; 50% inhibition of cell proliferation; read-out: Cytotoxicity activity IC50, PC3 (prostate)", "protocol": "as §1"}, "[8]": {"tested_on": "H1299 (lung) cancer cells", "assay": "MTT in vitro cytotoxic activity assay, H1299", "details": "Homo sapiens, NCI-H1299; cells exposed for 96 hours; 50% inhibition of cell proliferation; read-out: Cytotoxicity activity IC50, H1299 (lung)", "protocol": "as §1"}}}
{"compound": "O=C(O)c1ccc2c(c1)nc(Nc1cccc(Cl)c1)c1ccncc12", "note": "[CX-4945, reference compound]", "values": [{"measurement": "IC50", "setting": "[1]", "value": 1000, "unit": "nM"}, {"measurement": "IC50", "setting": "[2]", "value": 6200, "unit": "nM"}, {"measurement": "IC50", "setting": "[3]", "value": 4100, "unit": "nM"}, {"measurement": "IC50", "setting": "[4]", "value": 9100, "unit": "nM"}, {"measurement": "IC50", "setting": "[5]", "value": 3700, "unit": "nM"}, {"measurement": "IC50", "setting": "[6]", "value": 2300, "unit": "nM"}, {"measurement": "IC50", "setting": "[7]", "value": 2000, "unit": "nM"}, {"measurement": "IC50", "setting": "[8]", "value": 2300, "unit": "nM"}]}
